From patent US20140256789
Results from cells or extracts need not show a direct contact.

Biological target: p53 (wild-type, endogenous) (Homo sapiens) (UniProt P04637)
Experiment: binding assay
Settings: ChIP with CM1 antibody and qPCR in HCT116; enrichment comparable to p21 site, increased by 5-FU, p53 knockdown control; protein in cells

Q: Does “GGGCTTGCCTGGGCTTGTTC (double strand) [miR-34a gene p53 binding site (p53BS, exon 1 of pm34a-EST)]” bind?
A: Result: binds
